This is an account of results in PubChem BioAssay AID330 (DTP/NCI, 2004).

The list is a part of this screen's results and no random one: it gathers tests that were run many times, whatever their T/C, doses with no T/C, and many T/C values between a quarter and a half above the control. Further doses and runs are listed elsewhere. T/C is the treated group as % of the vehicle group. Some doses have a count of surviving animals in place of a T/C: the source holds a T/C of zero for them, seemingly a mark for toxic or unscored doses. Some survivor counts are full or nearly so, which does not show that the dose was tolerated: survival well below the control is almost never listed, so the zero probably covers shortened survival too. Survivors were counted at the toxicity check, usually on the fifth day, unless a day is given; later deaths do not show. Schedules are NCI's codes, read here as Q, the interval in days (D) or hours (H), X, the number of doses. Some structures stand for samples that the source files as different forms (salt, stereo form or complex); doses refer to the form tested. Some entries hold several experiments; the results are listed from low to high. Where survival is the endpoint, this PubChem deposit counts one and a half times the control or more as active, and values a quarter to a half above the control carry no call in these data; other NCI protocols may use other cut-offs. Marks such as (2×) stand for listed records that agree.

The assay concerns P388 leukemia ip, CD2F1 mice, survival T/C. Briefly: NCI In Vivo Anticancer Drug Screen. Data for tumor model P388 Leukemia (intraperitoneal) in CD2F1 (CDF1) mice. The conditions noted are these: T/C endpoint: median survival time, higher T/C = longer survival.
Setting [1] is: dose: 50.0 mg/kg/injection, schedule: Q01DX009 (ip), vehicle: saline with Tween-80.
Where [2] appears, read: dose: 100.0 mg/kg/injection, schedule: Q01DX009 (ip), vehicle: saline with Tween-80.
The mark [3] stands for this setting: dose: 200.0 mg/kg/injection, schedule: Q01DX009 (ip), vehicle: saline with Tween-80.
Setting [4] is: dose: 400.0 mg/kg/injection, schedule: Q04DX003 (ip), vehicle: saline with Tween-80.
[5] abbreviates: dose: 240.0 mg/kg/injection, schedule: Q01DX005 (ip), vehicle: saline with Tween-80.
[6] abbreviates: dose: 25.0 mg/kg/injection, schedule: Q01DX005 (ip), vehicle: Klucel (hydroxypropylcellulose) (HPC).
[7] abbreviates: dose: 50.0 mg/kg/injection, schedule: Q01DX005 (ip), vehicle: Klucel (hydroxypropylcellulose) (HPC).
Setting [8] is: dose: 200.0 mg/kg/injection, schedule: Q01DX005 (ip), vehicle: saline with Tween-80.
[9] abbreviates: dose: 200.0 mg/kg/injection, schedule: Q01DX005 (ip), vehicle: Klucel (hydroxypropylcellulose) (HPC).
The mark [10] stands for this setting: dose: 200.0 mg/kg/injection, schedule: Q01DX009 (ip), vehicle: water.

Regarding `COC(=O)/C=C(\Br)C(=O)OC`, the survivor count runs as follows: (dose: 12.5 mg/kg/injection, schedule: Q01DX009 (ip), vehicle: saline with Tween-80) 0 of 6; (dose: 25.0 mg/kg/injection, schedule: Q01DX009 (ip), vehicle: saline with Tween-80) 0 of 6; under setting [1], 0 of 6; under setting [2], 0 of 6; under setting [3], 0 of 6.

As for `CCOC(=O)CCC(NC(=O)N(CCCl)CCCl)C(=O)OCC` (centres undefined), the survivor count under setting [4] is given as 6 of 6.

Regarding `COc1ccc(C#CC2(O)c3ccccc3C(O)(C#Cc3ccc(OC)cc3)c3ccccc32)cc1` (centres undefined), the survivor count under setting [3] is given as 6 of 6.

Consider `O=c1[nH]cc(NS(=O)(=O)c2ccccc2)c(=O)[nH]1`, for which the survivor count under setting [5] was 3 of 6.

With `O=C1C(Cl)=C(Oc2ccccc2Cl)C(=O)C(Cl)=C1Oc1ccccc1Cl`, the survivor count is listed as 6 of 6 under setting [6] and 6 of 6 under setting [7].

Turning to `CCCn1c(O)c(C=N)c(=O)[nH]c1=O`, the survivor count under setting [1] is on record as 6 of 6.

On to `N#Cc1c(C(=O)NN)cc(-c2ccc3ccccc3c2)[nH]c1=O`, for which the survivor count under setting [8] is 3 of 6.

Turning to `CC1CC2OC(=O)C3=C2C(CCC3)C12CC(c1ccoc1)OC2=O` (centres undefined), the survivor count was 3 of 3 under setting [1] and 0 of 3 under setting [2].

Take `C=C(Br)C(=NC(C)(C)C)Nc1ccc(Cl)cc1`: the survivor count is reported as 0 of 5 under setting [6]; 3 of 5 under setting [7]; 1 of 5 (dose: 100.0 mg/kg/injection, schedule: Q01DX005 (ip), vehicle: Klucel (hydroxypropylcellulose) (HPC)); 0 of 5 under setting [9].

With `O=C1CC2(CCCC2)C(=O)N1c1ccccc1O`, the T/C reads like this: (dose: 100.0 mg/kg/injection, schedule: Q01DX009 (ip), vehicle: Klucel (hydroxypropylcellulose) (HPC)) 127 % of control; (dose: 200.0 mg/kg/injection, schedule: Q01DX009 (ip), vehicle: Klucel (hydroxypropylcellulose) (HPC)) 127 % of control. The survivor count (dose: 400.0 mg/kg/injection, schedule: Q01DX009 (ip), vehicle: Klucel (hydroxypropylcellulose) (HPC)) is given as 4 of 6.

As for `Cc1csc2nc(-c3ccco3)nn12`, the survivor count (dose: 240.0 mg/kg/injection, schedule: Q01DX005 (ip), vehicle: Klucel (hydroxypropylcellulose) (HPC)) is listed as 0 of 6.

With `COCC(=O)c1ccc([N+](=O)[O-])cc1`, the survivor count (dose: 50.0 mg/kg/injection, schedule: Q01DX009 (ip), vehicle: saline) is 6 of 6.

Regarding `COc1cc(C=Nc2cc(Cl)c(O)c(Cl)c2)ccc1N(CCCl)CCCl`, where the note is “dose: 37.5 mg/kg/injection, schedule: Q04DX003 (ip), vehicle: saline”, the survivor count is listed as 3 of 6.

On to `Cc1ncc2c(n1)CCC1=C2OS(=O)(=O)CC1N(C)C` (centres undefined), for which the survivor count under setting [8] is given as 0 of 6.

Turning to `CN1c2ccccc2S(=O)(=O)n2c(-c3ccccc3Cl)nnc21`, the survivor count (dose: 200.0 mg/kg/injection, schedule: Q01DX001 (ip), vehicle: saline with Tween-80) is 6 of 6.

On to `CCCCCCCCCCCCCC1=NCCN1CCN`, for which the T/C under setting [1] was 135 % of control. In addition, under “dose: 200.0 mg/kg/injection, schedule: Q01DX009 (ip), vehicle: saline”, the survivor count was 3 of 6.

On to `COC(C(=O)N/C(N)=N/O)c1c(Cl)cccc1Cl` (centres undefined), for which, under setting [9], the survivor count was 1 of 6.

For the compound `C=C(C)C1=CC(=O)C(C)(C)O1`, under setting [2], the T/C is 128 % of control.

For the compound `COc1cc(C=Nc2cc(Cl)cc(Cl)c2)ccc1N(CCCl)CCCl`, the survivor count under setting [4] was 5 of 6.

In the case of `CN(C)CCCNc1c2ccc(Cl)cc2nc2ccc(O)cc12`, the T/C is, setting by setting: (dose: 3.13 mg/kg/injection, schedule: Q01DX009 (ip), vehicle: saline) 133 % of control; (dose: 6.25 mg/kg/injection, schedule: Q01DX009 (ip), vehicle: saline) 144 % of control; (dose: 12.5 mg/kg/injection, schedule: Q01DX009 (ip), vehicle: saline) 135 % of control. Further, the survivor count (dose: 25.0 mg/kg/injection, schedule: Q01DX009 (ip), vehicle: saline) is 6 of 6.

On to `O=C(Nc1ccc(CCO)cc1)Nc1cc(C(F)(F)F)ccc1Cl`, for which, under setting [5], the survivor count is reported as 6 of 6.

As to `OCC1OC2OC3C(CO)OC(OC4C(CO)OC(OC5C(CO)OC(OC6C(CO)OC(OC7C(CO)OC(OC1C(O)C2O)C(O)C7O)C(O)C6O)C(O)C5O)C(O)C4O)C(O)C3O` (centres undefined) (tested in a mixture with another compound), the T/C is 133 % of control (dose: 25.0 mg/kg/injection, schedule: Q01DX009 (ip), vehicle: water); 142 % of control (2×) (dose: 50.0 mg/kg/injection, schedule: Q01DX009 (ip), vehicle: water); 129 % of control (dose: 100.0 mg/kg/injection, schedule: Q01DX009 (ip), vehicle: water); 134 % of control under setting [10]. Also, the survivor count runs as follows: under setting [10], 5 of 6 and 6 of 6; (dose: 400.0 mg/kg/injection, schedule: Q01DX009 (ip), vehicle: water) 0 of 6.

With `C/C(=N\[N+](C)(C)C)c1ccccc1`, the survivor count (dose: 200.0 mg/kg/injection, schedule: Q04DX003 (ip), vehicle: saline with Tween-80) was 6 of 6 and the survivor count under setting [4] is 0 of 6.

As for `O=C1C2C3C=CC(C2C(=O)N1CCl)C1C2C(=O)N(CCl)C(=O)C2C31` (centres undefined), the T/C (dose: 400.0 mg/kg/injection, schedule: Q01DX009 (ip), vehicle: saline with Tween-80) was 126 % of control.

For the compound `S=C1N(c2ccc(Cl)cc2)C2=C(N=Nc3cc(Cl)ccc3Cl)C(=Nc3ccccc3S2)N1c1ccccn1`, the survivor count (dose: 120.0 mg/kg/injection, schedule: Q01DX005 (ip), vehicle: saline with Tween-80) is 2 of 6 and the survivor count under setting [5] is listed as 0 of 6.

Take `Nc1ccn(C2CC(N)C(CO)O2)c(=O)n1` (centres undefined): the T/C is 128 and 135 % of control (dose: 50.0 mg/kg/injection, schedule: Q01DX005 (ip), vehicle: water); 143 and 145 % of control (dose: 100.0 mg/kg/injection, schedule: Q01DX005 (ip), vehicle: water).
